Results on two substances are retold here after PMC11311430.

Chains of the proteins cited; added tags and fusions are not shown. Residues count along the entry.
UniProt P15502, residues 27-786: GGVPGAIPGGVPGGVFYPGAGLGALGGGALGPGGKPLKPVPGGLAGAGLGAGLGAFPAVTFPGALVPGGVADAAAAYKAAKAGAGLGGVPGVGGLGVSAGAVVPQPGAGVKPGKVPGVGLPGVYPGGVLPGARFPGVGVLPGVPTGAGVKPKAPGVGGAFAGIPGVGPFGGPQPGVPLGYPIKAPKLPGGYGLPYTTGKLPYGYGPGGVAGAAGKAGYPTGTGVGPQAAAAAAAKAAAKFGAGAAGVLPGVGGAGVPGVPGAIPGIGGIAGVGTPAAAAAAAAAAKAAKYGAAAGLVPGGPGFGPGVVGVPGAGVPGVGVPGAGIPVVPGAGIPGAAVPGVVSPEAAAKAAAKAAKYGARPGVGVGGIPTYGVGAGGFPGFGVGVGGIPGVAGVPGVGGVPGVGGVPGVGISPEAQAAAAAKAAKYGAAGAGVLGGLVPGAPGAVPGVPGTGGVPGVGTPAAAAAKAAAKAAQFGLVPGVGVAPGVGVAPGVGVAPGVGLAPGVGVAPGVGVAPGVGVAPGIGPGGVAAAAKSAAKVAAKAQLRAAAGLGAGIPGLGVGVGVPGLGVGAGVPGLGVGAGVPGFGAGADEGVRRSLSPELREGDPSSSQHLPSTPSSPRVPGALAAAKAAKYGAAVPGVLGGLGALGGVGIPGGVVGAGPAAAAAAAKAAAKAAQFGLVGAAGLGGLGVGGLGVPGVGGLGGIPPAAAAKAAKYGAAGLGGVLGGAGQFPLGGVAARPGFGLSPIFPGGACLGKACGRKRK
UniProt P35555, residues 45-2731: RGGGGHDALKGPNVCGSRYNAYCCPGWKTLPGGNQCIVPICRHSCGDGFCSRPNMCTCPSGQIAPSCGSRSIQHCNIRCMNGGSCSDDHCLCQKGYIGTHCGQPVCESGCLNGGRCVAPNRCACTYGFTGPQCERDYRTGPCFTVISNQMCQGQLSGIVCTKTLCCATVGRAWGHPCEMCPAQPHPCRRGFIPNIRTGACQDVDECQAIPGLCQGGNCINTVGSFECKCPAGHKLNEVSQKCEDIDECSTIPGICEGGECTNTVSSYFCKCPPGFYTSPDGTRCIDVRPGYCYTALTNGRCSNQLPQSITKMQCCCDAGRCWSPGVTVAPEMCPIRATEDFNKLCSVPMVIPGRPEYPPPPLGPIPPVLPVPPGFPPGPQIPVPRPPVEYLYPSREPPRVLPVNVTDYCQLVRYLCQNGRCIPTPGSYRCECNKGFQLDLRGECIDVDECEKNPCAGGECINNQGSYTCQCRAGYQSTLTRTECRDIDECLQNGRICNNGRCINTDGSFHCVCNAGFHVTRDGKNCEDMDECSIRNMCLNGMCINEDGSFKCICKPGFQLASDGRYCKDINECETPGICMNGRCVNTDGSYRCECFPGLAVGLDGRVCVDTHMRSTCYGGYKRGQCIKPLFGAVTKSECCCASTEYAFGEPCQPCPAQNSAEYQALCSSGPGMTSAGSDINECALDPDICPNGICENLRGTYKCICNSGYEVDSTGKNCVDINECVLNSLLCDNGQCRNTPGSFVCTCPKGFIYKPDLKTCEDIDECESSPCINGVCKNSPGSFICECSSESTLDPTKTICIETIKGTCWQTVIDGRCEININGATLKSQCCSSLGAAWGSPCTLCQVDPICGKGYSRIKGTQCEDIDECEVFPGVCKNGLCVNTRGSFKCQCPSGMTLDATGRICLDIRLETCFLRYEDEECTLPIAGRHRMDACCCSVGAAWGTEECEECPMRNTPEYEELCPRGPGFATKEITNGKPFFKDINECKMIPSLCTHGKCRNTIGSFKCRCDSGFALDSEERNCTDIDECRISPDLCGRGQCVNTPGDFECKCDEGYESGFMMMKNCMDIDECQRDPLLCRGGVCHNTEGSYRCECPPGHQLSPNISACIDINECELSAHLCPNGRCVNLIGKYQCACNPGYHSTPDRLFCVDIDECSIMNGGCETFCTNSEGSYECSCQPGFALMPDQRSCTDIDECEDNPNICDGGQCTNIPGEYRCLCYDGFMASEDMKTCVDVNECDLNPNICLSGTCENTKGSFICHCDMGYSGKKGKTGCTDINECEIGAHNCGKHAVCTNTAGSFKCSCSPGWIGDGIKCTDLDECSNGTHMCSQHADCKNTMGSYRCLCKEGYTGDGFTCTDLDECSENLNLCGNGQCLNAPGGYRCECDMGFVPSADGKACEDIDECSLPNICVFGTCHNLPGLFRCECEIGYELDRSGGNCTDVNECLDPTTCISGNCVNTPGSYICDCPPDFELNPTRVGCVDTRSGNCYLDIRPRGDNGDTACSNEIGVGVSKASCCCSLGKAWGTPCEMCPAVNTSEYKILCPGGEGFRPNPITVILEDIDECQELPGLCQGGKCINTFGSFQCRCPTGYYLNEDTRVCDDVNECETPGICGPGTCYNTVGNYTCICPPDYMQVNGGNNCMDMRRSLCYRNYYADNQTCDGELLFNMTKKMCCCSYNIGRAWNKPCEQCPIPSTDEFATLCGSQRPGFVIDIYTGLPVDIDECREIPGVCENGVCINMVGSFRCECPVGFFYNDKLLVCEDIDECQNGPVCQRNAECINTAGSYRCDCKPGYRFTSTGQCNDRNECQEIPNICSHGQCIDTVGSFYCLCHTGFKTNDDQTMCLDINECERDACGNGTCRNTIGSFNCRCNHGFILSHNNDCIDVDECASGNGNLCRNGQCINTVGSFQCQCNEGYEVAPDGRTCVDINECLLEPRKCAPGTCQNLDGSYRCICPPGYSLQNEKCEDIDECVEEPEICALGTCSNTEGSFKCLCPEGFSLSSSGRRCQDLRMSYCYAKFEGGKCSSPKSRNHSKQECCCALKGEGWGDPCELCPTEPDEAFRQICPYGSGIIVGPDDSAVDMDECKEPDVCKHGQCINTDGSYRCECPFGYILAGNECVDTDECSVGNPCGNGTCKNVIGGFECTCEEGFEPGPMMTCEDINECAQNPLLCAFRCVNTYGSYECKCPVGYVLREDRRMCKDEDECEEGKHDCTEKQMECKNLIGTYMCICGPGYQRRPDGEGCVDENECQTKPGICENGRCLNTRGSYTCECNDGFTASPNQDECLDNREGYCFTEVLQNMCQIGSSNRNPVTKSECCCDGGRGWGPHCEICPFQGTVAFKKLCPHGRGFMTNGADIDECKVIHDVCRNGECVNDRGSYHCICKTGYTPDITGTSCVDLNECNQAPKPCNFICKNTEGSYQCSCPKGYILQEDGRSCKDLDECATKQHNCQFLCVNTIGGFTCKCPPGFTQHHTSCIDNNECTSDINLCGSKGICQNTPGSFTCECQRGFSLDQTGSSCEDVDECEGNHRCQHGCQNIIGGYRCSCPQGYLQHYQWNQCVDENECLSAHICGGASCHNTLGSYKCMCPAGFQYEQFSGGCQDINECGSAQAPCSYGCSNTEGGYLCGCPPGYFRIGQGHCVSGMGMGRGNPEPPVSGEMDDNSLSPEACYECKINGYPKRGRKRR
UniProt Q61554, residues 45-2733: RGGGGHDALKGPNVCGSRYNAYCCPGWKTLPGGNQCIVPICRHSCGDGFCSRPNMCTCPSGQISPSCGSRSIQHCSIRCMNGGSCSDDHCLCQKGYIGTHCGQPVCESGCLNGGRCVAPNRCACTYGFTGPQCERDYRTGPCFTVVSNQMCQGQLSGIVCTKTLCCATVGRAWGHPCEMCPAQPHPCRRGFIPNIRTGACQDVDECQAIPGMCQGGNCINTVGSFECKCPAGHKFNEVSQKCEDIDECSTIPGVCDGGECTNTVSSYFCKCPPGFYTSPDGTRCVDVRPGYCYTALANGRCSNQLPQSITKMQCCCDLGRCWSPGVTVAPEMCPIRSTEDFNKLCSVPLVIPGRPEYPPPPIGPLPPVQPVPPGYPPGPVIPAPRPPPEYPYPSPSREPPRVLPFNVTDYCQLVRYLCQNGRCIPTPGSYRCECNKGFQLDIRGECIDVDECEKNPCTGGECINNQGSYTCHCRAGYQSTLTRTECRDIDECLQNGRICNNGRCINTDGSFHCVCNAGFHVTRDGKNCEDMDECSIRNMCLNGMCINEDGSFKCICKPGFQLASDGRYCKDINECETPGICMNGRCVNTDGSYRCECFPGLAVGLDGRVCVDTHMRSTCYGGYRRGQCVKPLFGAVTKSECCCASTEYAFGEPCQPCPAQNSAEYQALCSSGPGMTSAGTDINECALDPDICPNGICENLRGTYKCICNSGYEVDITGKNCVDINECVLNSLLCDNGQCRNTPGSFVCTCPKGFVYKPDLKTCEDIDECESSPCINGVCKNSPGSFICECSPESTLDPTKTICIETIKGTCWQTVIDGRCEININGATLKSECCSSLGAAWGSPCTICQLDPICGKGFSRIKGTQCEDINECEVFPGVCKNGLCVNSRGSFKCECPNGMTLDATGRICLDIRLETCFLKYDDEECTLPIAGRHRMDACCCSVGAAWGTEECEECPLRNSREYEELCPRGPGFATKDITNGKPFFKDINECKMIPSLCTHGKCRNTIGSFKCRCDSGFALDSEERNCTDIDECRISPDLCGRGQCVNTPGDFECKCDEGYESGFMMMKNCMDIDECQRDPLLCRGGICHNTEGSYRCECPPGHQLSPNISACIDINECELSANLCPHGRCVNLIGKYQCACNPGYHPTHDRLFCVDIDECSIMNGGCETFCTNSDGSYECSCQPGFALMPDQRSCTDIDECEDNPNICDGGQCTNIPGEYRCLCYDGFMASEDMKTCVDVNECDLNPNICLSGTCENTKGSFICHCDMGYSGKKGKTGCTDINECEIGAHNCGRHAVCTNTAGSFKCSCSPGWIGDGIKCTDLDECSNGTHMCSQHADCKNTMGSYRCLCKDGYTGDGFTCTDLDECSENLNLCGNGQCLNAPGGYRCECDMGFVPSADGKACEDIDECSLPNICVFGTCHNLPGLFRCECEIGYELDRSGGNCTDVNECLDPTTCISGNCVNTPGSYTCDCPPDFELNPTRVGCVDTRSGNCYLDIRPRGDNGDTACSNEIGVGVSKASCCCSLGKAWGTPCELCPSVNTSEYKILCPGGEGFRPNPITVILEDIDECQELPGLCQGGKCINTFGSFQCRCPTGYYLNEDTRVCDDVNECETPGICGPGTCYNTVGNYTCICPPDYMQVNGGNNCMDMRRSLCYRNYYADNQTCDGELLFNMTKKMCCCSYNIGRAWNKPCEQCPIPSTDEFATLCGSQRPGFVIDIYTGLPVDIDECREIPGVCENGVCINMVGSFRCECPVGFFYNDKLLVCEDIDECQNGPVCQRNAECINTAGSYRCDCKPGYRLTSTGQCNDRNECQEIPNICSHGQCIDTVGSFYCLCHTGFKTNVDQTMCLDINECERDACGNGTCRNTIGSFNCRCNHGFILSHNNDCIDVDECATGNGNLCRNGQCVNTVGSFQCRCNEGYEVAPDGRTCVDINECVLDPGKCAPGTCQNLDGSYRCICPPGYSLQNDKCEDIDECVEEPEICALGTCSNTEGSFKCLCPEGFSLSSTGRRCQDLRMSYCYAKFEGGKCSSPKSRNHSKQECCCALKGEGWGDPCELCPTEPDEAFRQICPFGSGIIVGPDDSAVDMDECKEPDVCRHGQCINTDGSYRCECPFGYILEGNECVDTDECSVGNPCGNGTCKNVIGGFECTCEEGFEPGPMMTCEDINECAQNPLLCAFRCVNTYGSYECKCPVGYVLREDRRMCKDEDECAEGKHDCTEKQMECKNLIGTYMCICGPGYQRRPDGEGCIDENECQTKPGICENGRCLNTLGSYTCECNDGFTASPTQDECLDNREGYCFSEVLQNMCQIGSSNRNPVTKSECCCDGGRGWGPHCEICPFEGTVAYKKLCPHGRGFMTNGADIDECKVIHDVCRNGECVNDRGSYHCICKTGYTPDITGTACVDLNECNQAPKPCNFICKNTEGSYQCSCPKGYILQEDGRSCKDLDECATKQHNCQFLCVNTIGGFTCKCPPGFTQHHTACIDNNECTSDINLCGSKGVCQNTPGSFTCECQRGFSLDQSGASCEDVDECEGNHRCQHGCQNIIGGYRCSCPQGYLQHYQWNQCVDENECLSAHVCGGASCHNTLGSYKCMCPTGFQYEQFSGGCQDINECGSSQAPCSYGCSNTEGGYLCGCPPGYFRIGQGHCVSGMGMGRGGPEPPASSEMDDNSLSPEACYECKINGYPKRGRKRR

Results are given in words; binding and its absence hold for the method and conditions named. In cells and extracts the contact can be indirect. Some binding calls cover weakened binding; strength is not graded here.

Assay [1] deals with elastin (human aorta) (human (endogenous in ascending aorta)) (UniProt P15502). Kind of assay: proximity ligation; in situ PLA on paraffin sections of healthy human (Ctrl) ascending aorta; anti-elastin and anti-fibrillin-1 antibodies.
In assay [2] the target is T1, elastin (mouse aorta) (mouse (endogenous in thoracic aorta)) (UniProt P54320).
T1 sequence: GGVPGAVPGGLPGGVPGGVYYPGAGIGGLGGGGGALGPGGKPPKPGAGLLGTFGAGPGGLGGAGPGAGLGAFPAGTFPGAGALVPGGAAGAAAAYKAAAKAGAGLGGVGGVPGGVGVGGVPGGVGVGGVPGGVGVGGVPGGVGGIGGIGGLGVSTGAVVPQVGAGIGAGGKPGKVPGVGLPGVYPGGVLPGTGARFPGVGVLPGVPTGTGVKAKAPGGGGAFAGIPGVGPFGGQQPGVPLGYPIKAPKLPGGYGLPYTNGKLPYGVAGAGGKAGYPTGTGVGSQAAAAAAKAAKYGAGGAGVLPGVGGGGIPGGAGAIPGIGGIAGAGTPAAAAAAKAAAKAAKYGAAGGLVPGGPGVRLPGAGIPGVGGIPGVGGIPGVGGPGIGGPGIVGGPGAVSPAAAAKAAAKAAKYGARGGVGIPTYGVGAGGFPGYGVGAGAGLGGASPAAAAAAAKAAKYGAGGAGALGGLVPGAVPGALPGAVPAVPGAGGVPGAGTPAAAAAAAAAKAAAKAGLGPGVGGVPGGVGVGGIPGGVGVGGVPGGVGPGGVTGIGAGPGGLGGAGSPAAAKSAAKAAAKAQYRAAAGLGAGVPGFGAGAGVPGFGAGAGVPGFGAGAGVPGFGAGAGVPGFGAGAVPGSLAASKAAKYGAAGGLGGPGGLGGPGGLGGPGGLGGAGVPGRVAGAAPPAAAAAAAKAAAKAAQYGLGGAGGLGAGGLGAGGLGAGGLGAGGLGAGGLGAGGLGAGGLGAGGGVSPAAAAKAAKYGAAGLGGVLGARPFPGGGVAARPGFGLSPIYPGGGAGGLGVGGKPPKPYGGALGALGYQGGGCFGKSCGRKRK
The assay is described as follows: proximity ligation; in situ PLA (Duo-link kit) on 5 µm paraffin sections of Myh11-CreERT2 (WT, tamoxifen-injected) mouse descending thoracic aorta; rabbit anti-elastin and mouse anti-fibrillin-1 antibodies at 4 °C overnight.

In assay [3] the target is T1, elastin (mouse aorta) (mouse (endogenous in thoracic aorta)). The assay is described as follows: co-IP; thoracic aorta tissue of WT and ADAR1sm-/- mice lysed in Co-IP lysis buffer; supernatant incubated overnight at 4 °C with protein A/G-agarose beads carrying normal IgG, elastin or fibrillin-1 antibody; Western blot for fibrillin-1 and elastin. (In general: Immunoblotting shows a protein as a band on a membrane.)

For “fibrillin-1 (healthy human aorta) (from UniProt P35555 45-2731)”, the binding entry in assay [1] is “binds”. With “fibrillin-1 (mouse aorta) (from UniProt Q61554 45-2733)”, the binding result in assay [2] and in assay [3] was “binds” each time.
